Experimental data published in PubChem BioAssay AID1458 (National Center for Advancing Translational Sciences (NCATS), 2008).
Screen size: about 210,000 compounds; about 5,900 (2.8%) were called active. Not shown: some 5% with an inconclusive outcome. Calls come from the whole dose curve; as a rule, active = well fitted activation curve with a large enough effect; inconclusive = small, poorly fitted or top-dose-only effect; inactive = no such curve, though single readings can be large or run the other way. This is a selection; strong and weak results do not stand in their true shares. Entries without a call were filed so in the source.

Assay: qHTS Assay for Enhancers of SMN2 Splice Variant Expression; note: nearly all actives have a fitted effect of over 55% in size; for activity change, positive = activation: % of control where 0% means no effect
Settings: HEK293 SMN2-luciferase splicing reporter, luminescence, 30-36 h; activity change, positive = activation: at 46.1 µM (top of the series) unless noted
Procedure, shortened: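 HEK293 cells carry an SMN2 […]–luciferase reporter in which exon 7 inclusion puts luciferase in frame. Cells were plated 10-12 h before compound addition, then incubated 30-36 h at 37C. ONE-Glo luminescence was read; sodium butyrate at 4.5 mM final served as control.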
Potency is the fitted concentration of half-maximal effect.

| SMILES | Potency | activity change, positive = activation |
| --- | --- | --- |
| O=C(N/N=C/c1ccc2c(c1)OCO2)c1ccccn1 | active: 3.55 µM | – |
| CC(=O)Nc1ccc(NC(=O)c2cccc(-c3cc4ccccc4oc3=O)c2)cc1 | active: 10 µM | – |
| Cc1nc2ccc(NC(=O)c3cccs3)cc2c(=O)n1Cc1ccc(Cl)cc1 | – | inactive: -102% |
| Clc1ccc(CSc2nnc(-c3c[nH]c4ccccc34)o2)cc1 | – | 15.7% |
| CCOC(=O)c1sc(NC(=O)c2ccc(S(=O)(=O)N3CCCCCC3)cc2)nc1-c1ccccc1 | – | inactive: -78.5% |
| NC(=O)CSCc1c(Cl)cccc1Cl | – | 42% |
| O=C(Nc1nc2ccc([N+](=O)[O-])cc2s1)c1ccco1 | active: 3.55 µM | – |
| COc1cc2[nH]c(=O)n(CCC(=O)NC3CCCC3)c(=O)c2cc1OC | – | 41.6% |
| CC(NC(=O)C1CCC1)c1ccccc1 (configuration not stated) | – | 38.1% |
| CC1CCCCN1S(=O)(=O)c1ccc(C(=O)Nc2ccccc2-c2nc3ccccc3[nH]2)cc1 (configuration not stated) | – | -58.6% |
| Nc1cc[n+](CC(=O)c2ccc3c(c2)OCCO3)cc1 | – | -54.6% |
| CS(=O)(=O)N1CCN(c2ccc(NC(=O)C(c3ccccc3)c3ccccc3)cc2)CC1 | – | inactive: -46.1% |
| Cc1ccc(C)n1-c1cccc(NC(=O)c2ccccc2)c1 | – | 35.1% |
| Fc1ccc([C@H]2CCNCC2COc2ccc3c(c2)OCO3)cc1 (some centres not stated) | – | inactive: 0.812% |
| NC(=O)COC(=O)c1ccc2c(c1)S(=O)(=O)N=C1CCCCCN12 | – | 43.2% |
| COc1ccccc1NC(=O)C1=C(C)Nc2nnnn2C1c1ccccc1OC (configuration not stated) | – | 61.4% |
| CSc1ccccc1-c1nnc(-c2ccc(Cl)cc2)o1 | active: 14.1 µM | – |
| CC(C)Sc1ncc(Cl)c(C(=O)Nc2nc3ccc(S(C)(=O)=O)cc3s2)n1 | – | inactive: 33.6% |
| CN(C)c1ccc(NC(=O)c2cccc(C(=O)Nc3ccc(N(C)C)cc3)n2)cc1 | active: 14.1 µM | – |
| COC1=CCC2([N+](=O)[O-])CN(CCO)CC1([N+](=O)[O-])C2 (configuration not stated) | – | 32.9% |
| COCC(C)N=C1NN=C(c2c[nH]c3ccccc23)CS1 (configuration not stated) | – | 63% |
| Cc1ccc(NC(=S)NCCc2ccccc2)nc1 | active: 25.1 µM | – |
| CSc1ccc(/C=N/NC(=O)c2cccc(Cl)c2)cc1 | active: 10 µM | – |

Some of the entries so far, with bars between the fields.
SMILES | Potency | activity change, positive = activation
CC(=O)Nc1ccc(NC(=O)c2cccc(-c3cc4ccccc4oc3=O)c2)cc1 | active: 10 µM | –
O=C(Nc1nc2ccc([N+](=O)[O-])cc2s1)c1ccco1 | active: 3.55 µM | –
COc1cc2[nH]c(=O)n(CCC(=O)NC3CCCC3)c(=O)c2cc1OC | – | 41.6%
COc1ccccc1NC(=O)C1=C(C)Nc2nnnn2C1c1ccccc1OC (configuration not stated) | – | 61.4%
CC(C)Sc1ncc(Cl)c(C(=O)Nc2nc3ccc(S(C)(=O)=O)cc3s2)n1 | – | inactive: 33.6%
COCC(C)N=C1NN=C(c2c[nH]c3ccccc23)CS1 (configuration not stated) | – | 63%

(next part)

| SMILES | Potency | activity change, positive = activation |
| --- | --- | --- |
| O=C(COC(=O)[C@@H]1CCCN1C(=O)c1cccs1)NCCc1ccccc1 | – | 38.7% |
| O=C(NC(=S)Nc1ccc(N2CCCCC2)cc1)c1ccc2c(c1)OCCO2 | – | inactive: -42.7% |
| COC(=O)c1cc(C(=O)OC)cc(N2C(=O)CC(N3CCN(c4ccccc4)CC3)C2=O)c1 (configuration not stated) | – | 31% |
| COc1ccc(CCn2c(C)cc(C(=O)CSc3nnnn3-c3ccccc3)c2C)cc1OC | – | -42% |
| O=C(O)CNC(=O)CCN1C(=O)c2ccccc2C1=O | – | 35.8% |
| COc1cc(NC(=O)Cn2nc(C(F)(F)F)c3c2CCCC3)cc(OC)c1OC | inactive | – |
| CCN(/C=N/c1sc2c(c1C#N)CCCCC2)CC | active: 11.2 µM | – |
| CC(C)CC(C(=O)NC(C)(C)C)N(CC1CCCO1)C(=O)c1snc(C(N)=O)c1N (configuration not stated) | – | inactive: -37.6% |
| CCOC(=O)c1sc(NC(=O)c2ccccc2OC)nc1C | active: 2.51 µM | – |
| Cc1ccc(C(=O)OCC(=O)c2ccc(Cl)s2)s1 | – | 27.8% |
| CCOC(=O)C1=C(c2cccc(Oc3ccccc3)c2)NC(=S)NC1C (configuration not stated) | – | -41.3% |
| Cn1ccnc1SCC(=O)c1ccc(Cl)cc1 | – | 67.9% |
| CCC1(C)COC2(OC1)C(=O)Nc1ccccc12 (configuration not stated) | – | 35.4% |
| C=CCNc1oc(/C=C/c2ccccc2)nc1C#N | active: 11.2 µM | – |
| O=C(C1CCN(CC2CC=CCC2)CC1)N(CCc1ccccc1)Cc1ccccc1 (configuration not stated) | – | -46% |
| O=C(CN1CCCC1)Nc1ccc(NC(=O)Nc2ccccc2)cc1 | – | 48.9% |
| COc1ccc2c(COC(=O)c3n[nH]c4ccccc34)cc(=O)oc2c1 | active: 20 µM | – |
| CC(=O)c1c(C)oc2ccc(NS(=O)(=O)c3ccc(C(C)C)cc3)cc12 | – | inactive: -43.1% |
| CC(C)c1ccc(C(=O)NN2C(=O)C3CCCCC3C2=O)cc1 (configuration not stated) | active: 11.2 µM | – |
| O=C(c1ccc2c(c1)OCO2)N1CCN(c2ccc(C(F)(F)F)cn2)CC1 | – | -76.2% |
| O=C(CN1C(=O)C(c2ccc(F)cc2)=NC12CCCC2)Nc1ccc(F)cc1 | – | -80.3% |
| O=C(/C=C\c1ccccc1OC(=O)c1ccccc1F)c1cc2ccccc2o1 | – | inactive: -117% |
| COc1ccc2c(c1)CC/C(=C/c1ccco1)C2=O | active: 17.8 µM | – |

| SMILES | Potency | activity change, positive = activation |
| --- | --- | --- |
| CC(=O)N1CC=C2C(C#N)=C(N)C(C#N)(C#N)C(C)C2C1 (configuration not stated) | – | 45% |
| COc1ccc(NC(=O)CSc2nc(-c3ccc(OC)cc3)cc(=O)[nH]2)cc1 | – | 33.8% |
| Cc1ccc(CSCc2nnc(SCC(=O)N3CCN(c4ccccc4)CC3)n2C)cc1 | – | inactive: -46.3% |
| COc1ccc(CNC(=O)C(c2ccco2)N(Cc2ccccc2)C(=O)Cc2cccs2)cc1 (configuration not stated) | – | inactive: 12% |
| COc1ccc(C(=O)Nc2ccc3nc(C)sc3c2)cc1OC | – | -5.91% |
| Cc1cccc2nc(CNc3ccc(F)cc3)cn12 | – | 49.5% |
| CSc1ccc(Cl)c(C(=O)OCC(=O)NCc2ccco2)c1 | – | 64.6% |
| COc1cc(NS(=O)(=O)c2ccc(N/C=C\C(=O)c3ccc(OC)c(OC)c3)cc2)nc(OC)n1 | – | -34.3% |
| COc1ccccc1NS(=O)(=O)c1cccc(NC(=S)NCCN2CCOCC2)c1 | – | 16.1% |
| Cc1ccc(/C=C/c2nc3ccccc3[nH]2)o1 | active: 3.98 µM | – |
| CC(=O)Nc1ccc(SCC(=O)Nc2sccc2C#N)cc1 | – | 67.9% |
| CC1(C)CC(=O)C(/C=N/n2cnc3ccccc3c2=O)=C(O)C1 | – | 30.9% |
| COc1ccc(NC(=O)C(NC(=O)/C=C\c2ccc3c(c2)OCO3)c2ccccc2)cc1 (configuration not stated) | active: 2 µM | – |
| O=c1cc(NCc2ccc3c(c2)OCO3)[nH]c(=O)n1-c1ccc(Cl)cc1 | – | 40.4% |
| COc1cc(C2C(C#N)=C(N)Oc3cc(O)ccc32)cc(OC)c1OC (configuration not stated) | – | 61.2% |
| Oc1c(Cl)cc(Cl)cc1C=Nc1ccc(Br)cc1 | – | 42.9% |
| CC1CCCC(NC(=S)Nc2ccc(SC(F)F)cc2)C1C (configuration not stated) | – | -34.8% |
| CC(C(=O)Nc1nccs1)N1C(=O)C2CC=CCC2C1=O (configuration not stated) | – | 24.5% |
| O=C(Nc1ccccc1C(F)(F)F)N1CCN(c2ccc3nnc(-c4ccc(F)cc4)n3n2)CC1 | inactive | – |
| CCCN(CCC)CC(O)Cn1cc(/C=C/C(=O)c2ccc(OCC)cc2)c2ccccc21 (configuration not stated) | – | inactive: -40.3% |
| COc1ccc(Nc2nc(N)nc(CSc3nc4cc(OC)ccc4s3)n2)cc1 | – | inactive: -68.4% |
